Results are given in words; binding and its absence hold for the method and conditions named. In cells and extracts the contact can be indirect. Binding calls can cover weak binding; strength is not graded here.
What was measured:
Test in all cases: co-IP; HeLa cells transfected with GFP-vector or the GFP-tagged protein for 16 h (48 h for the Htt(1–548) constructs); GFP-tagged proteins pulled down with GFP-Trap_MA beads (Chromotek); endogenous CCT2 detected by blot
[1] = target: Htt(1–548)Q15-GFP (WT HTT(1–548) tagged to GFP at its C terminus) (UniProt P42858)
[2] = target: Htt(1–548)Q138-GFP (mutant HTT(1–548) tagged to GFP at its C terminus) (UniProt P42858)
[3] = target: N17-103Q-GFP
[4] = target: N17-97QP-GFP

Protein sequences, listed by entry. Tags and fused reporters are not part of them. Lines headed by an entry give the natural chain unless they say otherwise; changes in a name come on top.
UniProt P42858: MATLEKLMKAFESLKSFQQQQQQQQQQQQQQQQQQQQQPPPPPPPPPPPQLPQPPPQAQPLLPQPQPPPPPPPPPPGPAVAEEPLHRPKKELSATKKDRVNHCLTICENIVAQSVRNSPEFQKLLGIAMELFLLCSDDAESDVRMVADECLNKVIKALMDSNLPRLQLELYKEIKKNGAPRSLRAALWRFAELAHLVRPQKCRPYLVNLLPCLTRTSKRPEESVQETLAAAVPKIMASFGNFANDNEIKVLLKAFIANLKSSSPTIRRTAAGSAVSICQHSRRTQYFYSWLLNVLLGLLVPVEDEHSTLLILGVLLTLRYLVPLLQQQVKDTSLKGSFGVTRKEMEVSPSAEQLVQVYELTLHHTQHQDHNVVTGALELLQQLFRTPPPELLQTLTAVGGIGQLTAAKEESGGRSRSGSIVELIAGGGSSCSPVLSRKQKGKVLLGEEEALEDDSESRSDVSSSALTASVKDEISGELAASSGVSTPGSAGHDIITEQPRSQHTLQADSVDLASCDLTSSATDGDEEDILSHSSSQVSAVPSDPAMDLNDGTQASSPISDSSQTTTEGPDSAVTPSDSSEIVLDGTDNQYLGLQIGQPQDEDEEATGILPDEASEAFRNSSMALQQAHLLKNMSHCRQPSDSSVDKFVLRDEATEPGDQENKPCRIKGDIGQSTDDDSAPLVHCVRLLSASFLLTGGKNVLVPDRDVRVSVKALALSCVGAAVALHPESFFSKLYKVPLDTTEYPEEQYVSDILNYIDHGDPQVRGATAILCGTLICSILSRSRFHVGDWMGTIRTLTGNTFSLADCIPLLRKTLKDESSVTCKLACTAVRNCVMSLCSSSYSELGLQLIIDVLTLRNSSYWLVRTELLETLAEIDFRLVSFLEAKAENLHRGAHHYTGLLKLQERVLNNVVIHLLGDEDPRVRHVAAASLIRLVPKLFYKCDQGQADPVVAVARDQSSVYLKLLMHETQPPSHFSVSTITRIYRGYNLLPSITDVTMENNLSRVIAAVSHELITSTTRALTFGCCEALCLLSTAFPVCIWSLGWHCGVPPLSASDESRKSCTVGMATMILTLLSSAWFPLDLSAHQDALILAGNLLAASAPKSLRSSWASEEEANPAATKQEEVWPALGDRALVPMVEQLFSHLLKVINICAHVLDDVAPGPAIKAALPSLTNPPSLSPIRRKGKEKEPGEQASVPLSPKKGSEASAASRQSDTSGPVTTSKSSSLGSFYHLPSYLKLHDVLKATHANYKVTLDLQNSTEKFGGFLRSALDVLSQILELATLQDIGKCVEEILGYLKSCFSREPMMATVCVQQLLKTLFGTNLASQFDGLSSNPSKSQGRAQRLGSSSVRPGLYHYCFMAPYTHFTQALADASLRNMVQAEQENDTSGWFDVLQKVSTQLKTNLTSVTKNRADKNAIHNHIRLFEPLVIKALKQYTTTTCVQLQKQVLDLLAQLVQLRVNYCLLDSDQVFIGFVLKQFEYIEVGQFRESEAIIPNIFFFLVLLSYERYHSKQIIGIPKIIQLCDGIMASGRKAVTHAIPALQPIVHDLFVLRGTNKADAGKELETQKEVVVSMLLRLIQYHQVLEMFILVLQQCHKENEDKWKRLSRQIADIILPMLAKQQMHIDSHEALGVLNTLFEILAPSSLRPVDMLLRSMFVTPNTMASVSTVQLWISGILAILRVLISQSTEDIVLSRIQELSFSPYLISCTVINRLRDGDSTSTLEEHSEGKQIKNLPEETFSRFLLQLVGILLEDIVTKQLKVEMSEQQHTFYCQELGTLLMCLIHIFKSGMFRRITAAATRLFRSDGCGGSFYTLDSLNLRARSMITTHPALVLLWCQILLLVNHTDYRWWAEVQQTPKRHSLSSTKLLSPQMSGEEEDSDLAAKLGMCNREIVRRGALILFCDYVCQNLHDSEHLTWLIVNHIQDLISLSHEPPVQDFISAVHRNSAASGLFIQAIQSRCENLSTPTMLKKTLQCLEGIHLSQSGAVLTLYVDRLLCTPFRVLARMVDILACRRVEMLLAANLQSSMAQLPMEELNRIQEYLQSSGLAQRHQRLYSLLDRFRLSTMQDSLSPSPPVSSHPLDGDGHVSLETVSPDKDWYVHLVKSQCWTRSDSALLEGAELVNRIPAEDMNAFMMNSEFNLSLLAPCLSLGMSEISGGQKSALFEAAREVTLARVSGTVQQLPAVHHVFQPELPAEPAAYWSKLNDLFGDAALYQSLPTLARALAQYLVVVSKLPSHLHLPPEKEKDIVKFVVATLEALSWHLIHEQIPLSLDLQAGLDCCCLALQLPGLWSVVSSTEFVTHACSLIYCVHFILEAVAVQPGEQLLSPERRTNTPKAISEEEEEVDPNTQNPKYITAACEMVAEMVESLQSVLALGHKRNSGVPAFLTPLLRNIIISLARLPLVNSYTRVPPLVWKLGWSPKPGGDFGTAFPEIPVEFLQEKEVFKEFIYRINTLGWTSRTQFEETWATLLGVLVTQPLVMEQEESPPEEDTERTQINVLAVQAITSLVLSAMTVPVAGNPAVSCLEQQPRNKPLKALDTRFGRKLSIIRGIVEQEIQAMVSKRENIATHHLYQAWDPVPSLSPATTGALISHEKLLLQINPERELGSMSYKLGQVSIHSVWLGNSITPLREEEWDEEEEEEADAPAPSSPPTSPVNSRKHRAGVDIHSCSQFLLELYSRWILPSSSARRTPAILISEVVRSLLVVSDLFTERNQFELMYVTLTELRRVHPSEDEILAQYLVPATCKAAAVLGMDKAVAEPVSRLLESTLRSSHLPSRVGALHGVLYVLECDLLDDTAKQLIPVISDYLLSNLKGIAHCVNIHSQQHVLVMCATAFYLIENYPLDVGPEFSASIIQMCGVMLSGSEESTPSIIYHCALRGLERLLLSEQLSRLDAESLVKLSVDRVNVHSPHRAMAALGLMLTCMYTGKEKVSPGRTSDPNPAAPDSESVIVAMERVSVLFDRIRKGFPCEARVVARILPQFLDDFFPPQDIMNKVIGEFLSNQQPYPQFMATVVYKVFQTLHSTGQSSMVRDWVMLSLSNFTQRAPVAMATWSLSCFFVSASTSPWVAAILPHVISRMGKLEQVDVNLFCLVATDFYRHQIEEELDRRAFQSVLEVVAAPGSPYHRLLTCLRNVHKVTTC

- binding [1]: binds
- binding [2]: binds
- binding [3]: binds
- binding [4]: binds
B1: CCT2 (protein, UniProt P78371 1-535)
chain: MASLSLAPVNIFKAGADEERAETARLTSFIGAIAIGDLVKSTLGPKGMDKILLSSGRDASLMVTNDGATILKNIGVDNPAAKVLVDMSRVQDDEVGDGTTSVTVLAAELLREAESLIAKKIHPQTIIAGWREATKAAREALLSSAVDHGSDEVKFRQDLMNIAGTTLSSKLLTHHKDHFTKLAVEAVLRLKGSGNLEAIHIIKKLGGSLADSYLDEGFLLDKKIGVNQPKRIENAKILIANTGMDTDKIKIFGSRVRVDSTAKVAEIEHAEKEKMKEKVERILKHGINCFINRQLIYNYPEQLFGAAGVMAIEHADFAGVERLALVTGGEIASTFDHPELVKLGSCKLIEEVMIGEDKLIHFSGVALGEACTIVLRGATQQILDEAERSLHDALCVLAQTVKDSRTVYGGGCSEMLMAHAVTQLANRTPGKEAVAMESYAKALRMLPTIIADNAGYDSADLVAQLRAAHSEGNTTAGLDMREGTIGDMAILGITESFQVKRQVLLSAAEAAEVILRVDNIIKAAPRKRVPDHHPC
